Measured values: paper PMC11077971 (mBio, 2024)
No constants are given. Whether binding was seen depends on the method and setting. Binding calls can cover weak binding; strength is not graded here. Sequences can lack the tags named with a protein. For part of these data: Binding seen in cells or lysates may run through a third protein.

What follows are binders tested against GST-CTβ-CTα subcomplex of Chloroflexus aurantiacus carboxyltransferase (Chloroflexus aurantiacus J-10-fl) (assay: co-purification (Ni2+-chelating, then GST affinity) + SEC; His6-BC1 and GST-CTβ-CTα co-expressed in E. coli BL21(DE3) with 10 mg/L biotin; 50 mM Tris-Base pH 9.0, 150 mM NaCl, 5 mM MgCl2, 5% glycerol; HiLoad 16/600 Superdex 200 PG; SDS-PAGE of the peak).

binding | Binder
binds | biotinylated His6-tagged Chloroflexus aurantiacus BC1 (enzyme, UniProt A9W9X0 1-596, biotin on Lys553) MFRTILVANRGEIALRVMRACRELGLRCVAVYSEADRDAPHVAYADDAFLIGPPSPAESYLNIDAIIRAAKATGAEAIHPGYGFLAENASFVRAVTAAGLIFIGPPAEAMERMGGKTAARREATAAGVPVVPGVLEPVTDAAEVRRLGKEFGYPIAIKAVGGGGGRGLRVVRSPEEVDEAFAAARREAEVAFKNGELYVEKYLDDPRHIEIQVLADRYGNAVALGERDCSVQRRHQKLIEECPSPALTPELRAEMGAAAVRLAKAVGYVSAGTLEFLFQDGRYYFLEMNTRIQVEHTVTEMVYGIDLVAAQIRIAQGEKLWFKQEDVVPRGHAIECRINAEDPLHNFRPALGTIGEYHEPVGFGVRVDSGVRAYYTVPSHYDSLLAKLITWGSDRQEAIARMRRALAEYRIEGVTTIIPFHQAALEHPVFTAGAATVNFIPRHPELFSRAAELTPPTAASAGAEPAPEPRRFTIEVNGRRFGVAVFGDGMNATPVASPSRSAPARRAAPKKTTLAAPVDAVISPIQGRVVAVRVAHGQQVEAGQVLFIVEAMKMENEITAPHSGTIAEVRVEVGTTVEAGAMLATYQNTANNTNGK

What follows are binders tested against GST-CTβ-CTα subcomplex of Chloroflexus aurantiacus carboxyltransferase (Chloroflexus aurantiacus J-10-fl) (assay: pull-down; 50 ng GST-CTβ-CTα on glutathione-Sepharose resin as bait, 150 ng His6-tagged BC protein, 1 h at 4°C; 50 mM Tris-Base pH 9.0, 150 mM NaCl, 5 mM MgCl2, 5% glycerol, 0.01% Triton-X100; SDS-PAGE; also with 2 mM NaHCO3 and Ac-CoA added (not affected); both purified).

binding | Binder
binds | biotinylated His6-tagged Chloroflexus aurantiacus BC1 (enzyme, UniProt A9W9X0 1-596, biotin on Lys553) MFRTILVANRGEIALRVMRACRELGLRCVAVYSEADRDAPHVAYADDAFLIGPPSPAESYLNIDAIIRAAKATGAEAIHPGYGFLAENASFVRAVTAAGLIFIGPPAEAMERMGGKTAARREATAAGVPVVPGVLEPVTDAAEVRRLGKEFGYPIAIKAVGGGGGRGLRVVRSPEEVDEAFAAARREAEVAFKNGELYVEKYLDDPRHIEIQVLADRYGNAVALGERDCSVQRRHQKLIEECPSPALTPELRAEMGAAAVRLAKAVGYVSAGTLEFLFQDGRYYFLEMNTRIQVEHTVTEMVYGIDLVAAQIRIAQGEKLWFKQEDVVPRGHAIECRINAEDPLHNFRPALGTIGEYHEPVGFGVRVDSGVRAYYTVPSHYDSLLAKLITWGSDRQEAIARMRRALAEYRIEGVTTIIPFHQAALEHPVFTAGAATVNFIPRHPELFSRAAELTPPTAASAGAEPAPEPRRFTIEVNGRRFGVAVFGDGMNATPVASPSRSAPARRAAPKKTTLAAPVDAVISPIQGRVVAVRVAHGQQVEAGQVLFIVEAMKMENEITAPHSGTIAEVRVEVGTTVEAGAMLATYQNTANNTNGK
no binding (tested: 150 ng) | His6-BC1K553A (enzyme, UniProt A9W9X0 1-596) MFRTILVANRGEIALRVMRACRELGLRCVAVYSEADRDAPHVAYADDAFLIGPPSPAESYLNIDAIIRAAKATGAEAIHPGYGFLAENASFVRAVTAAGLIFIGPPAEAMERMGGKTAARREATAAGVPVVPGVLEPVTDAAEVRRLGKEFGYPIAIKAVGGGGGRGLRVVRSPEEVDEAFAAARREAEVAFKNGELYVEKYLDDPRHIEIQVLADRYGNAVALGERDCSVQRRHQKLIEECPSPALTPELRAEMGAAAVRLAKAVGYVSAGTLEFLFQDGRYYFLEMNTRIQVEHTVTEMVYGIDLVAAQIRIAQGEKLWFKQEDVVPRGHAIECRINAEDPLHNFRPALGTIGEYHEPVGFGVRVDSGVRAYYTVPSHYDSLLAKLITWGSDRQEAIARMRRALAEYRIEGVTTIIPFHQAALEHPVFTAGAATVNFIPRHPELFSRAAELTPPTAASAGAEPAPEPRRFTIEVNGRRFGVAVFGDGMNATPVASPSRSAPARRAAPKKTTLAAPVDAVISPIQGRVVAVRVAHGQQVEAGQVLFIVEAMAMENEITAPHSGTIAEVRVEVGTTVEAGAMLATYQNTANNTNGK
no binding (tested: 150 ng) | Chloroflexus aurantiacus BC2 (His6-tagged, Met1-Val455) (enzyme, Chloroflexus aurantiacus J-10-fl, UniProt A9WKH8 1-455, looked up, biotin carboxylase isoform BC2, Chloroflexus aurantiacus J-10-fl, 455 residues; Met1-Val455 is called full-length; also called His6-BC2; biotin carboxylase isoform 2; not shown: His6, N-terminal, kept) MIRKVLVANRGEIAVRIIRACQELGIRTVVAYSTADRDSLAVRLADEAVCIGPPPAAKSYLNAPALISAALVSGCDAIHPGYGFLSENPYFAEMCADCKLTFIGPPPEPIRLMGDKAIGRETMRKAGVPTVPGSDGEVRSLEEAIDVARQIGYPVLLKPSGGGGGRGMRVAYDEADLQRAFPTARAEAEAAFGNGALLLEKYLTRVRHVEIQVLADQYGHAIHLGERDCSAQRRHQKIVEEAPSPAVTPELRERMGADAVRGIKSIGYVNAGTLEFLLDQDGNYYFIEMNTRIQVEHPVTEQVTGIDLVRWQLLIASGERLTLRQEDIKITRHAIECRINAEDPERDFLPASGEVEFYLPPGGPGVRVDSHLYSGYTPPGTYDSLLAKIITFGDTRDEALNRMRRALNECVITGIKTTIPFQLALIDDPEFRAGRIHTGYVAELLRQWKETLNPV
no binding | His6-BC1ΔBCCP^Core (Met1-Lys510) (domain or fragment, Chloroflexus aurantiacus J-10-fl, UniProt A9W9X0 1-510, looked up, biotin carboxylase isoform BC1 without the BCCP core, Chloroflexus aurantiacus J-10-fl; The cloning of this construct is not described in the methods; source: E. coli BL21(DE3), purified) MFRTILVANRGEIALRVMRACRELGLRCVAVYSEADRDAPHVAYADDAFLIGPPSPAESYLNIDAIIRAAKATGAEAIHPGYGFLAENASFVRAVTAAGLIFIGPPAEAMERMGGKTAARREATAAGVPVVPGVLEPVTDAAEVRRLGKEFGYPIAIKAVGGGGGRGLRVVRSPEEVDEAFAAARREAEVAFKNGELYVEKYLDDPRHIEIQVLADRYGNAVALGERDCSVQRRHQKLIEECPSPALTPELRAEMGAAAVRLAKAVGYVSAGTLEFLFQDGRYYFLEMNTRIQVEHTVTEMVYGIDLVAAQIRIAQGEKLWFKQEDVVPRGHAIECRINAEDPLHNFRPALGTIGEYHEPVGFGVRVDSGVRAYYTVPSHYDSLLAKLITWGSDRQEAIARMRRALAEYRIEGVTTIIPFHQAALEHPVFTAGAATVNFIPRHPELFSRAAELTPPTAASAGAEPAPEPRRFTIEVNGRRFGVAVFGDGMNATPVASPSRSAPARRAAPK
no binding (tested: 150 ng) | His6-BC1ΔBCCP (Met1-Glu452) (domain or fragment, Chloroflexus aurantiacus J-10-fl, UniProt A9W9X0 1-452, looked up, BC domain of biotin carboxylase isoform BC1, Chloroflexus aurantiacus J-10-fl; also called BCCP-truncated BC1 mutant; not shown: His6, N-terminal, kept) MFRTILVANRGEIALRVMRACRELGLRCVAVYSEADRDAPHVAYADDAFLIGPPSPAESYLNIDAIIRAAKATGAEAIHPGYGFLAENASFVRAVTAAGLIFIGPPAEAMERMGGKTAARREATAAGVPVVPGVLEPVTDAAEVRRLGKEFGYPIAIKAVGGGGGRGLRVVRSPEEVDEAFAAARREAEVAFKNGELYVEKYLDDPRHIEIQVLADRYGNAVALGERDCSVQRRHQKLIEECPSPALTPELRAEMGAAAVRLAKAVGYVSAGTLEFLFQDGRYYFLEMNTRIQVEHTVTEMVYGIDLVAAQIRIAQGEKLWFKQEDVVPRGHAIECRINAEDPLHNFRPALGTIGEYHEPVGFGVRVDSGVRAYYTVPSHYDSLLAKLITWGSDRQEAIARMRRALAEYRIEGVTTIIPFHQAALEHPVFTAGAATVNFIPRHPELFSRAAE
